Values joined by “and” are separate entries in the source; they are usually repeats but may differ in a detail not shown here. Equal values may be shown once. Inconclusive results, whose numbers are uncertain, are shown with a selection of clear calls. A potency beside an inconclusive call is a rough fit, not a confirmed value. Active and inactive are the calls of the source. The calls were made as follows: active = hit-call score of the fitted dose curve at least 0.9, where 1 is the maximum; inconclusive = response in the unintended direction; inactive = score below 0.9.
Legend:
[1] = target: sheep Cyclooxygenase-1 (Cox1), PTGS1 (gene 443551) (UniProt P05979); assay: NVS_ENZ_oCOX1: NovaScreen (NVS) Enzymatic Assay for sheep Cyclooxygenase-1 (Cox1) (AID 2283239);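 also: actives reduce cyclooxygenase activity so potencies are for inhibitors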
Method in brief: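 Cell-free colorimetric assay of enzyme activity in a native extract of ovine seminal vesicles. Absorbance was read 0.66 hour after compound addition. Loss of signal relative to the DMSO negative control was scored, with actives from the 25 uM duplicate primary screen retested in concentration series.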

Amino acid sequences for entries named in this document (tags omitted). A change or cut given only in a name is not applied to a line headed by its entry.
UniProt P05979, whole entry, looked up: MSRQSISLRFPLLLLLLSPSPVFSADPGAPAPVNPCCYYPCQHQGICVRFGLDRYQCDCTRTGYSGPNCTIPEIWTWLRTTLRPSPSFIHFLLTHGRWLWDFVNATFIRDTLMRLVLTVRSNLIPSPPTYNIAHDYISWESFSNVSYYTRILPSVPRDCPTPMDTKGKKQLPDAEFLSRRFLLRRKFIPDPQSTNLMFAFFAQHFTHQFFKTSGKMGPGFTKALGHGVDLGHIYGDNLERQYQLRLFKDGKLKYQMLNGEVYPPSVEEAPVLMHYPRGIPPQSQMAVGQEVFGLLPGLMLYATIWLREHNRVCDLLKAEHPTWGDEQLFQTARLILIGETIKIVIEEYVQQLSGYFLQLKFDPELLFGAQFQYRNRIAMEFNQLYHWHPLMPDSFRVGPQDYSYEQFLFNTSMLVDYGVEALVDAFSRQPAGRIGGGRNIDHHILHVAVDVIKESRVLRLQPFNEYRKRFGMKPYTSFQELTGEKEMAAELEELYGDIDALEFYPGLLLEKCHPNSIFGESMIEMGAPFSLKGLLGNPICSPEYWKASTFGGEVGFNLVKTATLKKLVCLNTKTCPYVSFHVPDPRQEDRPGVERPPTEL
UniProt P03372, whole entry, looked up: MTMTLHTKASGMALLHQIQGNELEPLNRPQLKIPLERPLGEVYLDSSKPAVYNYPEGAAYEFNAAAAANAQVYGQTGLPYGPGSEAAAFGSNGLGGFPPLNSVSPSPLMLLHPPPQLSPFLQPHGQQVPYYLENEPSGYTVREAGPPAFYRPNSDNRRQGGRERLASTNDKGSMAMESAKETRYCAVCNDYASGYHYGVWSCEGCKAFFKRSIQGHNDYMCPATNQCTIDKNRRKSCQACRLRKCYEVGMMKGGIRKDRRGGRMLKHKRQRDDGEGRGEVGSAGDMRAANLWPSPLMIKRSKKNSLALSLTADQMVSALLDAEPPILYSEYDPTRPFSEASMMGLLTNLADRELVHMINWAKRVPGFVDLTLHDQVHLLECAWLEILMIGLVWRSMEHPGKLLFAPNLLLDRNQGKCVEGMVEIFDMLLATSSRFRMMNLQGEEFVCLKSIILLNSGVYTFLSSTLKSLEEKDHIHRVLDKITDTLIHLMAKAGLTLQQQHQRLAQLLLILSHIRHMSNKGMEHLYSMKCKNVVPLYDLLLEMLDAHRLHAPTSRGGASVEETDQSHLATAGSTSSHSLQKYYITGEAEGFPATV
UniProt Q92731, whole entry, looked up: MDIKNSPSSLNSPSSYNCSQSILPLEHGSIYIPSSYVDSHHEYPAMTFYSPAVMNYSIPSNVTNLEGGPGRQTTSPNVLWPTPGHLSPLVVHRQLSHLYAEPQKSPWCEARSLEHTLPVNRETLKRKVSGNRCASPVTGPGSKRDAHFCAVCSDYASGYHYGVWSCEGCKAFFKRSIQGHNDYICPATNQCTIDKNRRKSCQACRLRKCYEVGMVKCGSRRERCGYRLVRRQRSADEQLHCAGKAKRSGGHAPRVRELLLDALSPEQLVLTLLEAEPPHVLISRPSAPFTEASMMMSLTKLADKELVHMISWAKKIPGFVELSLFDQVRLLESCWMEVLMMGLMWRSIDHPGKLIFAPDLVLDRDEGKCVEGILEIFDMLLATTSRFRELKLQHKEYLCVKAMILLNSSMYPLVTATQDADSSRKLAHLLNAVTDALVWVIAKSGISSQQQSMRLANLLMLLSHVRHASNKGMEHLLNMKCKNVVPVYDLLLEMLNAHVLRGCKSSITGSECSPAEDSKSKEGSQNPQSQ
UniProt P37231: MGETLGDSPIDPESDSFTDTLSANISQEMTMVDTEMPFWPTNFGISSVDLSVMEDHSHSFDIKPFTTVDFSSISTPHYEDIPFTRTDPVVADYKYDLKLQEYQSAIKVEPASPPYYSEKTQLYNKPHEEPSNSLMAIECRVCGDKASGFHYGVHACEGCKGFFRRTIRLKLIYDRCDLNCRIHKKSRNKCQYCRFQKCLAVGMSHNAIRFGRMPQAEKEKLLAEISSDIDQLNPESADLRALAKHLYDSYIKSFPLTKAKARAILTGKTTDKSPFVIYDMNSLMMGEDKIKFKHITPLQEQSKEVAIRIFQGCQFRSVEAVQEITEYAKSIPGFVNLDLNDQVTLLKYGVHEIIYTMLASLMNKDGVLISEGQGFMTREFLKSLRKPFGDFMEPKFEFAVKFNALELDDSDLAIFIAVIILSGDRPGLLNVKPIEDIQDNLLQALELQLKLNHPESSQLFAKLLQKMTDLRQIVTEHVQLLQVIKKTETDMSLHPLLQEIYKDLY
UniProt P31751: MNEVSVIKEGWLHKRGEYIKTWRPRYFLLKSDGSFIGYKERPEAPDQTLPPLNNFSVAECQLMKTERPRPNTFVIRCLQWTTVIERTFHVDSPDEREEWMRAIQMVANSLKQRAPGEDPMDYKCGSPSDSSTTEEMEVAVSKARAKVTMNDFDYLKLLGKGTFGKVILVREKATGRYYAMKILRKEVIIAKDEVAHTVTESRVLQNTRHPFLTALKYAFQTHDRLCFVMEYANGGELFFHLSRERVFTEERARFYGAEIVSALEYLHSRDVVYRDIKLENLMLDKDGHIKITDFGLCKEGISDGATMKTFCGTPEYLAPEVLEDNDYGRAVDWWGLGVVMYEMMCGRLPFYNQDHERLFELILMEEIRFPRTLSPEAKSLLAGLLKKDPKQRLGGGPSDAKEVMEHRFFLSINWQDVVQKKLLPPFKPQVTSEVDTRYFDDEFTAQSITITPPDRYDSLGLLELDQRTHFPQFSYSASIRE
UniProt Q9UNQ0: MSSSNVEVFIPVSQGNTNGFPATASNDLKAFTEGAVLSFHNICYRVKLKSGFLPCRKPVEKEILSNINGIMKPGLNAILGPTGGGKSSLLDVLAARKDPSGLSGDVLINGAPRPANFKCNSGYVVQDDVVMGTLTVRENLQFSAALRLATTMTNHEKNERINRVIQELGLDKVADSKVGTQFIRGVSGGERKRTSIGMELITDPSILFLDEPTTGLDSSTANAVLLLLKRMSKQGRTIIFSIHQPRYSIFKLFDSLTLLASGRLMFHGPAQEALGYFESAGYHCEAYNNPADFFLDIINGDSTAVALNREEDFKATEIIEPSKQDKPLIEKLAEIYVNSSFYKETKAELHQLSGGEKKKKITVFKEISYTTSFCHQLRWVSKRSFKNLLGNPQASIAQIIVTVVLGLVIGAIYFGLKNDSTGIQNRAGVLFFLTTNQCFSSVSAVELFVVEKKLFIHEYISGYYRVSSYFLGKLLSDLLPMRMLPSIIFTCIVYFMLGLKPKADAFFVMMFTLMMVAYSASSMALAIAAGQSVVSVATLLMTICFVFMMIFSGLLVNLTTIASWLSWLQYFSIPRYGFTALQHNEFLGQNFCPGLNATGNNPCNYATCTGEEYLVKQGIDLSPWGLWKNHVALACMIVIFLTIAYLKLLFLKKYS
UniProt P10827: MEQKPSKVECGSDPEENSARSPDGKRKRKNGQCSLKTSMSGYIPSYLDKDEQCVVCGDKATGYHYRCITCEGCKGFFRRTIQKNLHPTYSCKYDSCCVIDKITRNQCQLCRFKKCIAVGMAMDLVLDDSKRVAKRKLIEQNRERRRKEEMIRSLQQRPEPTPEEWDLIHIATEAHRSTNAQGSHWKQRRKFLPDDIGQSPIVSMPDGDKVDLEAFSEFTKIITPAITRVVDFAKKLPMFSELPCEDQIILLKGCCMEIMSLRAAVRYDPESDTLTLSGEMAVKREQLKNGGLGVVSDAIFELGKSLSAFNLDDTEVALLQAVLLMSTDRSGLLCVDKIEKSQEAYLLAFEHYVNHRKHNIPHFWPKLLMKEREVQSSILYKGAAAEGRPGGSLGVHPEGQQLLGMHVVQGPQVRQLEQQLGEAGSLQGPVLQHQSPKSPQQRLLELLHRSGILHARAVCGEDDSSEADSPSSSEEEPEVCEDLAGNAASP
UniProt P16257, whole entry, looked up: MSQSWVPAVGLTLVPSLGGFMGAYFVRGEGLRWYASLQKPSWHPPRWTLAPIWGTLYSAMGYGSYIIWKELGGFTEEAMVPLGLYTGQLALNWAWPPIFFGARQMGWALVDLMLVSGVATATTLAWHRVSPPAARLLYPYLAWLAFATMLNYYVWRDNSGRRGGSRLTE

[2] = target: Estrogen receptor (Homo sapiens) + Estrogen receptor beta (Homo sapiens) (UniProt P03372+Q92731); assay: OT_ER_ERaERb_0480: Odyssey Thera (OT) 8-hour HEK293T Protein-Complementation Assay for Estrogen Receptor-alpha/-beta Heterodimer (AID 2283352)
Method in brief: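 HEK293T cells expressing ER-alpha/ER-beta LBD fusions to complementary reporter fragments were dosed with compound for 8 hours. Heterodimer formation was read as increased nuclear (agonist) or nuclear plus cytoplasmic (antagonist) mean fluorescence intensity versus DMSO vehicle.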

[3] = target: Peroxisome proliferator-activated receptor gamma (Homo sapiens) (UniProt P37231); assay: NVS_NR_hPPARg: NovaScreen (NVS) Nuclear Receptor Binding Assay for human Peroxisome Proliferator-activated Receptor gamma (PPARg) (AID 2283370)
Method in brief: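 Cell-free binding to extracted PPARg protein, read by fluorescence polarization 2 h after dosing; loss of signal relative to DMSO baseline marks displacement. Primary screen in duplicate at 25 uM, actives retested in concentration series.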

[4] = Tanguay_ZF_120hpf_EYE_legacy: (Legacy) Oregon State University Tanguay Lab 120 Hour Post-fertilization zebrafish Assay for Eye Malformation (AID 2283636);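 also: binary presence or absence of eye malformation scored by brightfield in 120 hpf larvae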
Method in brief: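 Dechorionated wild-type Tropical 5D zebrafish embryos were exposed statically from 6 hpf, one per well, to 120 hpf at 28C in sealed, foil-covered plates with 0.64% DMSO. Eye malformation was scored present/absent by brightfield microscopy against DMSO controls.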

[5] = target: human AKT serine/threonine Kinase 2 (AKT2), AKT2 (gene 208) (UniProt P31751); assay: NVS_ENZ_hAKT2: NovaScreen (NVS) Enzymatic Assay for human AKT serine/threonine Kinase 2 (AKT2) (AID 2283141)
Method in brief: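 Cell-free fluorescence/electrophoretic mobility shift readout of recombinant human AKT2 activity, 1 h after chemical dosing. Duplicate primary screen at 25 uM, then singleton concentration-response up to 50 uM; loss of signal versus DMSO baseline.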

[6] = Tanguay_ZF_120hpf_JAW_legacy: (Legacy) Oregon State University Tanguay Lab 120 Hour Post-fertilization zebrafish Assay for Jaw Malformation (AID 2283638);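 as to AC50: active means more embryos with jaw malformation than DMSO controls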
Method in brief: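 Tropical 5D wild-type embryos, dechorionated with pronase at 4 hpf, were placed singly per well at 6 hpf and statically exposed at 28C until 120 hpf (0.64% DMSO final). Jaw malformation scored as present/absent by brightfield microscopy at 120 hpf, analyzed relative to DMSO.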

[7] = read-out: Broad substrate specificity ATP-binding cassette transporter ABCG2 (Homo sapiens) (UniProt Q9UNQ0); assay: CLD_ABCG2_6hr: CellzDirect (CLD) Gene Expression Assay for ABC Transporter (ABCG2) at 6 hours (AID 2283660)
Method in brief: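 Primary human hepatocytes dosed daily with chemicals at multiple concentrations (0.2% DMSO vehicle), harvested 6 h after dosing. ABCG2 mRNA induction read by quantitative nuclease protection assay (qNPA) chemiluminescence; gain of signal fitted against DMSO baseline.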

[8] = read-out: sulfotransferase (SULT2A), SULT2A1 (gene 6822); assay: CLD_SULT2A_48hr: CellzDirect (CLD) Gene Expression Assay for sulfotransferase (SULT2A) at 48 hours (AID 2283710);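 also: hits raise SULT2A1 transcript above the 0.2% DMSO vehicle baseline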
Method in brief: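 Primary human hepatocytes (two donor preparations) dosed daily for two days with chemicals at multiple concentrations, vehicle 0.2% DMSO; SULT2A1 mRNA induction at 48 h by quantitative nuclease protection assay, chemiluminescent read-out, fitted for gain of signal versus DMSO.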

[9] = tested on: Sodium/Iodide Symporter (NIS), SLC5A5 (gene 6528); assay: CPHEA_Stoker_NIS_Inhibition_RAIU: CPHEA's Radioactive Iodide Uptake (RAIU) Assay for Sodium/Iodide Symporter (NIS) Inhibition, Stoker and Laws Labs (AID 2283841)
Method in brief: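 Test chemicals, six concentrations from 0.001 to 100uM in 0.5% DMSO, were co-incubated with carrier-free 125I (final 329pM) on hNIS-HEK293T-EPA monolayers in pH 7.4 HEPES-buffered HBSS. Plates stood 2 hours at room temperature, then were washed cold and counted.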

[10] = target: human Thyroid Receptor Alpha (TRa), THRA (gene 7067) (UniProt P10827); assay: NVS_NR_hTRa_Antagonist: NovaScreen (NVS) Nuclear Receptor Binding Assay for human Thyroid Receptor Alpha Antagonism (TRa) (AID 2283362);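 also: activity is loss of signal relative to DMSO baseline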
Method in brief: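 Cell-free binding assay on extracted receptor protein, read 1 h after chemical dosing by AlphaLISA chemiluminescence; loss of signal relative to DMSO baseline marks antagonism. Primary screen ran in duplicate at 25 uM, with concentration series for actives.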

[11] = Tanguay_ZF_120hpf_SWIM_legacy: (Legacy) Oregon State University Tanguay Lab 120 Hour Post-fertilization zebrafish Assay for Swim Bladder Malformation (AID 2283654);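 also: swim bladder malformation in each larva scored yes or no under brightfield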
Method in brief: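 Dechorionated Tropical 5D wild-type embryos, placed singly from 6 hpf, were statically exposed at 28C to 120 hpf with 0.64% DMSO final; swim bladder malformation was scored present/absent by brightfield microscopy, gain of signal relative to DMSO controls.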

[12] = CCTE_Mundy_HCI_Cortical_NOG_NeuronCount: CCTE's Neurite Outgrowth Assay in rat cortical cells for Neuron Count, Mundy Lab (AID 2284236);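 also: neurons counted by imaging betaIII-tubulin and Hoechst stained cortical cells; cells exposed to compound for about 48 hours before fixation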
Method in brief: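 Read-out: neuron number by high-content imaging of betaIII-tubulin (Alexa Fluor-488) and Hoechst-labelled rat primary cortical cells.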

[13] = CCTE_Mundy_HCI_hNP1_CellTiter: CCTE's Cell Titer-Glo 2 Assay in human neuroprogenitor cells for Viability, Mundy Lab (AID 2284241);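 as to AC50: a hit is a drop in ATP luminescence versus DMSO meaning reduced viability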
Method in brief: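 Measures ATP content in human neural progenitors derived from WA09 embryonic cells. Read-out at 26.5 hours after dosing, with DMSO serving as the negative control and baseline.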

[14] = CCTE_Mundy_HCI_Cortical_Synap_Neur_Matur_NeuronCount: CCTE's Synaptogenesis and Neurite Maturation Assay in rat cortical cells for Neuron Count, Mundy Lab (AID 2284242);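 as to AC50: neuron number from Hoechst nuclei and MAP2 staining by high-content imaging; hits reduce neuron count versus DMSO baseline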
Method in brief: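 Imaging-based neuron count in rat cortical cultures after chemical exposure from DIV 7 to DIV 12, with AraC added at DIV 5. Activity is fitted relative to DMSO.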

[15] = target: rat Peripheral-type Benzodiazepine Receptor (PBR), Tspo (gene 24230) (UniProt P16257); assay: NVS_MP_rPBR: NovaScreen (NVS) Membrane Protein Assay for rat Peripheral-type Benzodiazepine Receptor (PBR) (AID 2283335)
Method in brief: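 Radioligand displacement, rat kidney membrane prep, 1 h exposure, filter-based scintillation read; DMSO baseline, loss-of-signal scored. Primary screen at 25 uM in duplicate, actives followed up in concentration series.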

[16] = read-out: xenobiotic metabolism (CYP1A2), CYP1A2 (gene 1544); assay: CLD_CYP1A2_6hr: CellzDirect (CLD) Gene Expression Assay for xenobiotic metabolism (CYP1A2) at 6 hours (AID 2283663);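 as to AC50: potency is for induction meaning a rise in mRNA above DMSO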
Method in brief: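 Primary human hepatocytes from two donor preparations, dosed daily with multiple concentrations in 0.2% DMSO and harvested at 6 h. CYP1A2 mRNA induction measured by chemiluminescent qNPA, gain of signal fitted against DMSO; cytotoxicity flagged morphologically.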

[17] = read-out: xenobiotic metabolism (CYP2C9), CYP2C9 (gene 1559); assay: CLD_CYP2C9_6hr: CellzDirect (CLD) Gene Expression Assay for xenobiotic metabolism (CYP2C9) at 6 hours (AID 2283664)
Method in brief: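 Primary human hepatocytes dosed daily with test chemicals at multiple concentrations; harvested at 6 h. CYP2C9 mRNA induction measured by qNPA chemiluminescence. Gain of signal fitted against 0.2% DMSO vehicle; cytotoxicity annotated from phase-contrast morphology.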

[18] = read-out: ABC Transporter (ABCB1), ABCB1 (gene 5243); assay: CLD_ABCB1_48hr: CellzDirect (CLD) Gene Expression Assay for ABC Transporter (ABCB1) at 48 hours (AID 2283695);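 as to AC50: potency for induction meaning increase of mRNA over DMSO vehicle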
Method in brief: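 Primary human hepatocytes from two donor preparations dosed daily on two consecutive days with 0.2% DMSO vehicle. Harvest at 48 h. ABCB1 mRNA quantified by qNPA with chemiluminescence and fitted for gain of signal versus DMSO.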

[19] = CLD_ACTIN_6hr: CellzDirect (CLD) Gene Expression Assay for Baseline Control (Actin) at 6 hours (AID 2283676);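 as to outcome: active means increased actin mRNA relative to DMSO vehicle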
Method in brief: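 Primary human hepatocytes dosed with fresh chemical solutions (vehicle 0.2% DMSO), harvested at 6 h. Actin mRNA quantified by quantitative nuclease protection assay with chemiluminescent read-out, as background control relative to DMSO.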

[20] = read-out: xenobiotic metabolism (CYP1A2), CYP1A2 (gene 1544); assay: CLD_CYP1A2_24hr: CellzDirect (CLD) Gene Expression Assay for xenobiotic metabolism (CYP1A2) at 24 hours (AID 2283683)
Method in brief: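 Primary human hepatocytes from two donor preparations dosed daily with multiple concentrations of chemical, 0.2% DMSO vehicle. CYP1A2 mRNA at 24 h quantified by qNPA chemiluminescence; gain of signal analyzed relative to DMSO. Cytotoxicity flagged by phase-contrast morphology.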

Nc1cc2c3c(c1)C(c1ccccc1)=N[C@@H](NC(=O)c1cccnc1)C(=O)N3CC2
AC50 [1]: active: 15.1 µM
AC50 [2]: inconclusive: 50 µM
AC50 [3]: inconclusive: 25 µM
AC50 [4]: inconclusive: 10.6 µM

N#CC(Br)(Br)C(N)=O
AC50 [5]: inconclusive: 25 µM

ClCCCCl
AC50 [1]: inconclusive: 6.45 µM

Cc1ccccc1O
outcome [4]: inactive

CCCCC(C#N)(Cn1cncn1)c1ccc(Cl)cc1 (stereo not drawn)
outcome [3]: inactive
AC50 [6]: active: 48 µM
AC50 [7]: inconclusive: 0.000201 µM
AC50 [8]: inconclusive: 0.00544 µM
AC50 [9]: inconclusive: 0.00813 µM

ClCCOCCCl
AC50 [5]: inconclusive: 25 µM
outcome [1]: inactive
AC50 [4]: inconclusive: 202 µM

CCCCCCCCc1ccc(O)cc1
AC50 [5]: inconclusive: 25.1 µM
AC50 [10]: inconclusive: 1.35 µM

BrCCBr
AC50 [2]: inconclusive: 50.5 µM

COP(=S)(OC)SCN1C(=O)c2ccccc2C1=O
AC50 [11]: inconclusive: 12.8 µM
AC50 [9]: inconclusive: 0.000609 µM
outcome [12]: inactive
AC50 [13]: inconclusive: 51.5 µM
AC50 [14]: inconclusive: 0.00423 µM
outcome [14]: inactive

COc1ccccc1N
outcome [5]: inactive
AC50 [1]: active: 0.146 µM

CCCCCCCCCCCCc1cccc(S(=O)(=O)O)c1
AC50 [15]: active: 12.4 µM

CN(C)[C@@H]1C(=O)C(C(N)=O)=C(O)[C@@]2(O)C(=O)C3=C(O)c4c(O)cccc4[C@@](C)(O)[C@H]3[C@H](O)[C@@H]12
AC50 [11]: inconclusive: 116 µM and inconclusive: 115 µM
outcome [16]: inactive
AC50 [17]: inconclusive: 20 µM
AC50 [18]: inconclusive: 20 µM
AC50 [12]: active: 76.9 µM
outcome [13]: inactive

CC(C)(C)CC(C)(C)c1ccc(O)cc1
AC50 [15]: inconclusive: 25 µM
AC50 [6]: inconclusive: 4.48 µM

S=C1NCCN1
AC50 [5]: inconclusive: 11.3 µM
AC50 [15]: inconclusive: 0.355 µM
outcome [4]: inactive
AC50 [6]: inconclusive: 5.9 µM
AC50 [16]: inconclusive: 3.97 µM
AC50 [17]: inconclusive: 20 µM
outcome [19]: inactive
AC50 [20]: inconclusive: 0.00405 µM
outcome [18]: inactive
AC50 [8]: inconclusive: 20 µM
AC50 [12]: inconclusive: 0.00917 µM

FC(F)C(F)(F)OCC(Cn1cncn1)c1ccc(Cl)cc1Cl (stereo not drawn)
AC50 [6]: active: 11.7 µM
AC50 [11]: active: 18.2 µM
AC50 [7]: inconclusive: 20 µM
AC50 [19]: inconclusive: 20 µM
AC50 [20]: active: 1.46 µM
AC50 [8]: inconclusive: 38 µM

c1ccc(-c2ccccc2)cc1
AC50 [9]: inconclusive: 0.00021 µM

Oc1cc(Cl)c(Cl)cc1Cl
AC50 [10]: inconclusive: 25 µM

CCNC(=O)NC(=O)C(C#N)=NOC
AC50 [4]: active: 51.5 µM
AC50 [11]: active: 53.2 µM
AC50 [7]: inconclusive: 20 µM
outcome [16]: inactive
AC50 [19]: inconclusive: 20 µM
AC50 [18]: inconclusive: 3.97 µM
AC50 [14]: inconclusive: 15 µM

CC(=NC#N)N(C)Cc1ccc(Cl)nc1
AC50 [16]: inconclusive: 0.00539 µM
outcome [17]: inactive
AC50 [20]: inconclusive: 0.138 µM
AC50 [14]: inconclusive: 0.00059 µM

CNC(=O)CSP(=S)(OC)OC
outcome [15]: inactive
AC50 [2]: inconclusive: 50 µM
AC50 [7]: inconclusive: 0.0968 µM
outcome [20]: inactive
AC50 [8]: inconclusive: 0.265 µM
AC50 [12]: inconclusive: 497 nM and inconclusive: 10.7 nM
AC50 [13]: inconclusive: 0.00105 µM

CNc1cnn(-c2cccc(C(F)(F)F)c2)c(=O)c1Cl
AC50 [10]: inconclusive: 0.244 µM
outcome [6]: inactive

O=C(CCl)c1ccccc1
AC50 [3]: inconclusive: 25 µM
outcome [9]: inactive

CC(C)N(C(=O)SCC(Cl)=C(Cl)Cl)C(C)C
outcome [10]: inactive
AC50 [6]: inconclusive: 6.2 µM
outcome [18]: inactive
AC50 [9]: active: 21.1 µM

OCC1CO1 (stereo not drawn)
AC50 [3]: inconclusive: 0.0182 µM
outcome [4]: inactive
AC50 [11]: inconclusive: 2.75 µM

CC(C)Nc1nc(Cl)nc(NC(C)C)n1
outcome [2]: inactive
outcome [7]: inactive
outcome [19]: inactive
outcome [18]: inactive
outcome [8]: inactive
